Binding data for one molecule are collected here from paper PMC10766610, “DCAF1-based PROTACs with activity against clinically validated targets overcoming intrinsic- and acquired-degrader resistance” (Nature Communications, 2024).

Results are given in words; binding and its absence hold for the method and conditions named. Binding seen in cells or lysates may run through a third protein. A yes stands for co-enrichment or nearness to the bait. Other partners may have been found.

The target in this test is DCAF1 (human (endogenous in HEK293T)), Q9Y4B6. In words: affinity purification with mass spectrometry; HEK293T lysate (5 mg/mL) on resin carrying the DCAF1 ligand (16), 4 °C, 4 h, with or without preincubation with 100 µM free (16); TMT quantitative proteomics, two replicates. As to conditions: remark: other sources report otherwise.

B1: CUL4B, Q13620 1-913 (protein)
chain: MMSQSSGSGDGNDDEATTSKDGGFSSPSPSAAAAAQEVRSATDGNTSTTPPTSAKKRKLNSSSSSSSNSSNEREDFDSTSSSSSTPPLQPRDSASPSTSSFCLGVSVAASSHVPIQKKLRFEDTLEFVGFDAKMAEESSSSSSSSSPTAATSQQQQLKNKSILISSVASVHHANGLAKSSTTVSSFANSKPGSAKKLVIKNFKDKPKLPENYTDETWQKLKEAVEAIQNSTSIKYNLEELYQAVENLCSYKISANLYKQLRQICEDHIKAQIHQFREDSLDSVLFLKKIDRCWQNHCRQMIMIRSIFLFLDRTYVLQNSMLPSIWDMGLELFRAHIISDQKVQNKTIDGILLLIERERNGEAIDRSLLRSLLSMLSDLQIYQDSFEQRFLEETNRLYAAEGQKLMQEREVPEYLHHVNKRLEEEADRLITYLDQTTQKSLIATVEKQLLGEHLTAILQKGLNNLLDENRIQDLSLLYQLFSRVRGGVQVLLQQWIEYIKAFGSTIVINPEKDKTMVQELLDFKDKVDHIIDICFLKNEKFINAMKEAFETFINKRPNKPAELIAKYVDSKLRAGNKEATDEELEKMLDKIMIIFRFIYGKDVFEAFYKKDLAKRLLVGKSASVDAEKSMLSKLKHECGAAFTSKLEGMFKDMELSKDIMIQFKQYMQNQNVPGNIELTVNILTMGYWPTYVPMEVHLPPEMVKLQEIFKTFYLGKHSGRKLQWQSTLGHCVLKAEFKEGKKELQVSLFQTLVLLMFNEGEEFSLEEIKQATGIEDGELRRTLQSLACGKARVLAKNPKGKDIEDGDKFICNDDFKHKLFRIKINQIQMKETVEEQASTTERVFQDRQYQIDAAIVRIMKMRKTLSHNLLVSEVYNQLKFPVKPADLKKRIESLIDRDYMERDKENPNQYNYIA
Turning to B1, the binding entry is reported as “binds”.
